One data set deals with MYC (c-Myc) + MAX. The data set can be described thus: EMSA. To be noted: MYC/MAX heterodimer; EMSA: 50 mM HEPES (pH not stated), 150 mM NaCl, 0.2% BSA, 0.02% Tween 20, 0.5 mM MgCl2, 100 uM DTT; 60 min at room temperature; 5% gel; recombinant protein; protein details: His (pET-22b(+)),His (pET-22b(+)). For orientation: Mobility shift assays separate free from complexed probe on a gel.

Sequences of proteins named here, by UniProt entry; tags and fusion partners are left off.
UniProt O00255, whole entry: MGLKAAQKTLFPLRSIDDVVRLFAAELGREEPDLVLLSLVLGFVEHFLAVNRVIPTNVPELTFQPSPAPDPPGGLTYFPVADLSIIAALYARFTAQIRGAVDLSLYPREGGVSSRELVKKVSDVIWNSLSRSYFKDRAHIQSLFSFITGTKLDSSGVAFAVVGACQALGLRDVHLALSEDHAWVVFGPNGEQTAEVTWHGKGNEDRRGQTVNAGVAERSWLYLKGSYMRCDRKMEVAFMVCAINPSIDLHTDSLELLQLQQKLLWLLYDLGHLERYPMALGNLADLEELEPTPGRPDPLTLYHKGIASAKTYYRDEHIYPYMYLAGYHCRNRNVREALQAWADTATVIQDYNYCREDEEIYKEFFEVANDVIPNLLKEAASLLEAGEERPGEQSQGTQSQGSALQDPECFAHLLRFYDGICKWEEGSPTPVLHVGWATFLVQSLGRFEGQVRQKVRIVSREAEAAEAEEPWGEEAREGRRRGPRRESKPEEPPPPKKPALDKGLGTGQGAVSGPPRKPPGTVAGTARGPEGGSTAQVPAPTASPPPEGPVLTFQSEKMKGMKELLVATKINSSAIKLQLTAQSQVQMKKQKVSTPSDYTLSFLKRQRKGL

Another data set has as its target Menin (UniProt O00255). Put plainly: EMSA. To be noted: Menin alone; EMSA: 50 mM HEPES (pH not stated), 150 mM NaCl, 0.2% BSA, 0.02% Tween 20, 0.5 mM MgCl2, 100 uM DTT; 60 min at room temperature; 5% gel; recombinant protein; protein details: His (pET-22b(+)).
For data set [1], the system named is MYC (c-Myc) + MAX + Menin. The data set can be described thus: EMSA supershift. To be noted: anti-Menin antibody, Menin bound only with both MYC and MAX present; EMSA: 50 mM HEPES (pH not stated), 150 mM NaCl, 0.2% BSA, 0.02% Tween 20, 0.5 mM MgCl2, 100 uM DTT; 60 min at room temperature; 5% gel; recombinant protein; protein details: His (pET-22b(+)),His (pET-22b(+)),His (pET-22b(+)).

The text below walks through data of PMC5424160.

The exact form of at least one protein or probe is not confirmed. For part of these data: No signal at the amounts used counts as a negative.

As to “GGAAGCAGACCACGTGGTCTGCTTCC (double strand) [canonical E-box probe]”, the binding result in the data set with MYC (c-Myc) + MAX is reported as “binds”; with Menin, “no binding”; in data set [1], “binds”.
